{
  "source": "paper PMC3062617",
  "molecular_target": "GST-dMP1 fusion protein (Drosophila)",
  "assay": "pull-down; GST-dMP1 fusion protein on beads, in vitro translated 35S-Corto, autoradiography; GST beads as control; only the target purified",
  "note": "Results are given in words; binding and its absence hold for the method and conditions named. Binding seen in cells or lysates may run through a third protein.",
  "data": [
    {"binder": "in vitro translated 35S-Corto (protein, UniProt P41046 1-550, 35S label) MTMAACYANYDMSSLSHGMSALSALQQQQQQQQQQHSQTQQQHHHQQQQQHMYHAAVAAHQQQLLQQQQQQQHHRHHHQPANTSSSSNSRHSHAAATQTQVAAAVANSRQQQQQQQQQQQQQQQQQTASSNSNAAPAPSPQKDYSIPLHVDCSVEYELPNQPKPPAGQRVEPLLMIHPCYFRKMESQRRSPFVNNMHATARAVSSSSLSSGAALGGGGSGAAVATAPSSSAARRGARAATSAQQQQQQQQRYQQQQQQLRQQHQQMSQMSQQAHYPQQQSSLVRQHQQQQQQQQQQQRASSNQSQRQSQSQSQSQSHAANSAAAAAAQASIAAAAAGQWDQLAALAARTALTPHHMLHPHSHYAAKGSGGGAGGGKRDAMISGSYGQTAVASGKLQQSQVQQQQPQQQQQHCLPPPPWDATSMLMDRSPMATVPSNYQAGPDTNPMRLYSATPTAGAASGGSASVGGGGAVSGAGATGAVNTATDKLSGKYRQYLRSQRMHPYAAAASLNLAAAAAAAGQTSFVPFSSAATAVAATPTFQHLPQISCYNV", "values": [
      {"measurement": "binding", "value": "no binding"}
    ]}
  ]
}
